Consider one molecule from article PMC2728203.

Results are given in words; binding and its absence hold for the method and conditions named. Where a sequence is shown, tags or fusion partners need not be part of it.

The target in the assay is ΔN-Nab2, DBD fusion for two-hybrid (S. cerevisiae). Nature of the assay: two-hybrid; EGY48 reporter strain, Nab2 variants as DBD fusions (pEG202), CT-Mlp1 or Gfd1 as AD fusions (pJG4-5), lacZ reporter (blue colour), 30 °C.

B1: Gfd1, AD fusion for two-hybrid (protein, UniProt Q04839 1-188)
chain: MPLESIWADAPDEEPIKKQKPSHKRSNNNKKNNNSRWSNESSSNNKKKDSVNKVKNNKGNHESKTKNKIKETLPREKKPPHSQGKISPVSESLAINPFSQKATEISPPPVSPSKMKTTKTQSKQDTASKMKLLKKKIEEQREILQKTHHKNQQQQVLMDFLNDEGSSNWVDDDEEELILQRLKTSLKI
As for B1, the binding result is given as “no binding”.
